Experimental data from PMC11933467.
No constants are given. Whether binding was seen depends on the method and setting. Binding seen in cells or lysates may run through a third protein. Here binding means that the protein was enriched with, or labelled near, the bait; the list need not be complete. For part of these data: Where a sequence is shown, tags or fusion partners need not be part of it.

Protein sequences, listed by entry. Tags and fused reporters are not part of them. Lines headed by an entry give the natural chain unless they say otherwise; changes in a name come on top.
UniProt Q9VWS1: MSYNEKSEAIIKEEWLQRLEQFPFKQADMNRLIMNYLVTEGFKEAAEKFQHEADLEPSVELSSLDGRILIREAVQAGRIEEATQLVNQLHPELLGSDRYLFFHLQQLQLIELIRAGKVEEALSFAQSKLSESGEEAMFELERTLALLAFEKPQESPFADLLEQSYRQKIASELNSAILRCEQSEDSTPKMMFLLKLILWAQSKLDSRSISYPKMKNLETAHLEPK

Experiments:
[1] = biological target: Muskelin (Drosophila melanogaster (endogenous in embryos and oocytes)); test: affinity purification with mass spectrometry; anti-Muskelin immunoprecipitation from 0 to 1 h control (mCherry) or RanBPM knockdown embryo lysate against control immunoprecipitation; LC-MS/MS; three biological replicates
[2] = biological target: Houki (Drosophila melanogaster (endogenous in embryos)) (UniProt Q9VWS1); test: affinity purification with mass spectrometry; anti-Houki immunoprecipitation from 0 to 1 h embryo lysate against IgG control; on-bead digestion, LC-MS/MS; three biological replicates

| binding [1] | binding [2] | Binder |
| --- | --- | --- |
| binds | – | ME31B-GFP (protein, UniProt P23128 1-459) MMTEKLNSGHTNLTSKGIINDLQIAGNTSDDMGWKSKLKLPPKDNRFKTTDVTDTRGNEFEEFCLKRELLMGIFEKGWERPSPIQEAAIPIALSGKDVLARAKNGTGKTGAYCIPVLEQIDPTKDYIQALVMVPTRELALQTSQICIELAKHLDIRVMVTTGGTILKDDILRIYQKVQLIIATPGRILDLMDKKVADMSHCRILVLDEADKLLSLDFQGMLDHVILKLPKDPQILLFSATFPLTVKNFMEKHLREPYEINLMEELTLKGVTQYYAFVQERQKVHCLNTLFSKLQINQSIIFCNSTQRVELLAKKITELGYCCYYIHAKMAQAHRNRVFHDFRQGLCRNLVCSDLFTRGIDVQAVNVVINFDFPRMAETYLHRIGRSGRFGHLGIAINLITYEDRFDLHRIEKELGTEIKPIPKVIDPALYVANVGASVGDTCNNSDLNNSANEEGNVSK |
| binds | binds | Cup (protein, UniProt Q9VMA3 1-1117) MQMAEAEQENGAGALKIATNAGATDRPAHQQLPLPVEDQQDEVLTPAEKGKFEYPPPPPPPTPVQAPLATKATALNASQEHDDDEANSEKWEDPCAPPPPPPLPTSAFLATGLGYLKLPAFKLKDALEKAITKLEANKRTLKASPESSRSIKNKNVVALEMLPRRSNPETIGDGSMLASTSTAVMLQTKKPAVIVEMERRCKIINLLAKQNQILESISGEAIPMHGPSKHLHEDEGLTLQVLSARASTPYTQPSSMLSCTAVSCDLEHDSPRKQVASKEAVPEQQSSQVQQKRPPSTGIHKPGSLRAPKAVRPTTAPVVSSKPVKSYTRSRLMDIRNGMFNALMHRSKESFVMPRIATCDDIELEGRLRRMNIWRTSDGTRFRTRSTTANLNMNNNNNNECMPAFFKNKNKPNLISDESIIQSQPPQPQTEFQDPAIVNQRRIGSGRLNHSKWGYNDEDYHSYHNGKSQHMEEVNSKNSKNMTVLQFFDNGEISSQPQRRPNTPVMGMSINRSENDTLHSNESSEDLSRANENYVKRVMSGFLVVSKPKSRDVEDRHHRRYRNQNEEPEWFSCGPTSRLDTIELCGFDEDEEKMLKEGNKNHGLGETERETSKQKMDHKYKWTHAEPMGRSKYMPKHDTNNNHNVENMNNVMATEHQQQKEEKRPGSGRSFQFDKFNQSQQNYESSSYVNHQQPPQTQPQQMQQQSNTNTNNSKFMSFFANEGNSSSSSLNEFFKQAINQGHGNNPEQPKSLGHIGQMPSVDQLEAKWRRNSLNNVGETANKQTDNFQKLIGSLSSAKPQSQAVGYDAISNFIMQQQQYQQQQQKQHLIIQQQQQHTAFLASLQLKAILGRADTQLLLLRLTKGEISKHGLLVQLANPRLTDMDREAITAVLQFTNTQQQQQQHKQQLDMLSSTVIASQLQNLHNLAIVQQTLAARQQPQHNPQTQAPHQLSQEDLQAHANVIMRNAVMKRKIEEQTSKLINGGAKHQAQQQYLNRGQQRQARPDANSNALLHALISGGGNNHASGYPMNGQPQKHHSNLRFGDNQNFQSFESNQPHFATQYKQQYQQSQQQHPHQQPQQLNSLHQNNAGAVNSFNKAQMQAQSAISMLPNSGDEFH |
